From PubChem BioAssay AID1487 (National Center for Advancing Translational Sciences (NCATS), 2009)
The other results are listed elsewhere or left out. Shown are side measurements of this screen, not its main read-out; they come without a call. The list favours compounds with an active or inconclusive main result. The note in brackets gives the kind of curve behind each potency; many fits are weak.

Experiment: qHTS Assay for Modulators of Lamin A Splicing
Details: HeLa LMNA splicing GFP/RFP minigene ratio, 48 h
How it was run: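 Read-out is the ratio of GFP to DsRed2 object intensity, acquired by 488 nm laser-scanning cytometry on HeLa lamin A-EGFP minigene reporter cells. Compound incubation 48 hrs at 37 °C in Opti-MEM with 2% FBS; DMSO 0.5% final.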

[1] = measured here: GFP splicing reporter channel
[2] = measured here: RFP viability control channel

Row | Structure (SMILES) | AC50 [1] | AC50 [2]
1 | Nc1nc(CSc2ccc(Cl)cc2)nc(N2CCCCC2)n1 | 4.47 µM [rising, partial curve, poor fit] | –
2 | CCCCCCCNC(=O)C1CC(=O)N(C)C(=Nc2ccc(OC)cc2)S1 (stereo not drawn) | 12.6 µM [rising, partial curve] | 20 µM [rising, partial curve]
3 | CC(=O)c1cccc(NC(=S)NCCC2=CCCCC2)c1 | 28.2 µM [rising, partial curve] | 35.5 µM [rising, partial curve]
4 | O=C(Cn1c(SCc2ccccc2F)nc2cccnc21)Nc1ccc(F)c(Cl)c1 | 39.8 µM [falling, partial curve, poor fit] | –
5 | Cc1ccc(C(=O)N2CCc3cc(CNC(=O)CCc4ccccc4)ccc32)cc1 | 10 µM [falling, partial curve] | –
6 | CCC(=O)[C@@]1(C)[C@H](C)C[C@@H]2[C@@H]3CCC4=CC(=O)C=C[C@@]4(C)[C@H]3[C@H](O)C[C@]21C | 12.6 µM [falling, single point] | 8.91 µM [falling, partial curve, poor fit]
7 | O=C(NCc1cccnc1)/C(=C\c1ccc(-c2ccc(Br)cc2)o1)S(=O)(=O)c1ccccc1 | 35.5 µM [falling, single point] | –
8 | CCc1nc2ccc(C(=O)NCc3cccc(Br)c3)cc2nc1CC | 3.16 µM [falling, single point] | 1.26 µM [falling, partial curve, poor fit]
9 | COc1ccc(OCCC(=O)OCC(=O)NCCC2=CCCCC2)cc1 | 0.794 µM [rising, full curve, poor fit] | –
10 | O=C(CN1CCN(c2ccccn2)CC1)N1c2ccccc2Sc2ccc(C(F)(F)F)cc21 | – | 12.6 µM [rising, partial curve]
11 | NS(=O)(=O)c1ccc(CCNC(=O)C(=O)c2c[nH]c3ccccc23)cc1 | – | 0.1 µM [rising, full curve]
12 | COCCCN(C(=S)Nc1cc(C)cc(C)c1)C(C)c1ccncc1 (stereo not drawn) | – | 0.0282 µM [rising, full curve, poor fit]
13 | O=[N+]([O-])c1cc(-c2nnc(Nc3ccccc3)c3ccccc23)ccc1N1CCOCC1 | – | 11.2 µM [rising, partial curve, poor fit]
14 | CC(C)(C)n1nnnc1C(c1cccs1)N(Cc1ccccc1)Cc1ccco1 (stereo not drawn) | 15.8 µM [rising, single point] | 22.4 µM [rising, single point]
15 | COc1c(C)cc(Br)cc1C(=O)Nc1cccc(-c2nc3ncccc3o2)c1 | 25.1 µM [rising, single point] | 17.8 µM [rising, single point]
16 | Cc1cccc(CSc2nc3sc(C)c(C)c3c(=O)n2Cc2ccco2)c1 | 3.98 µM [falling, single point] | 3.98 µM [falling, single point]
17 | O=C(c1cnc(N2CCCCC2)c2ccccc12)N1CCN(c2cccc(Cl)c2)CC1 | 35.5 µM [falling, single point] | 35.5 µM [falling, single point]
18 | COCCCNC(=O)c1nn(-c2ccc(C)cc2)c(=O)n(C)c1=O | 14.1 µM [rising, partial curve, poor fit] | –

Row | Structure (SMILES) | AC50 [1] | AC50 [2]
19 | CC1CN(C(=O)Cc2ccc(-c3ccccc3)cc2)CC(C)O1 (stereo not drawn) | 14.1 µM [rising, single point] | –
20 | COc1ccc(OC)c(S(=O)(=O)N2CCC(C(=O)NC(C)c3ccccc3)CC2)c1 (stereo not drawn) | 35.5 µM [rising, single point] | –
21 | CC(C)(C)CC(C)(C)NC(=S)Nc1ccc(S(=O)(=O)N2CCOCC2)cc1 | – | 35.5 µM [rising, single point]
22 | COCCn1c(=O)c(-c2cccs2)nc2cnc(N3CCNCC3)nc21 | 14.1 µM [falling, partial curve, poor fit] | –
23 | C=CCn1c(O)c(N=NC(=S)Nc2ccccc2F)c2cc(S(=O)(=O)N3CCOCC3)ccc21 | – | 20 µM [falling, partial curve]
24 | Cc1cccn2c(NCc3ccc4c(c3)OCO4)c(-c3ccc(O)cc3)nc12 | 25.1 µM [falling, partial curve, poor fit] | –
25 | CCOc1cc(/C=N/N=C(N)N)ccc1OCc1ccc(Cl)cc1 | 12.6 µM [rising, single point] | 17.8 µM [rising, single point]
26 | CCNC(=O)C1CCN(Cc2cc3ccccc3n2Cc2ccc(C)cc2)CC1 | 11.2 µM [falling, partial curve] | –
27 | COC(=O)N/N=C1\CCCc2ccccc21 | 35.5 µM [rising, single point] | –
28 | CCC(C)c1ccc(O)c(NC(=O)c2ncn[nH]2)c1 (stereo not drawn) | 35.5 µM [rising, single point] | 31.6 µM [rising, single point]
29 | COCCN(C(=O)CSc1ncc(C(F)(F)F)cc1Cl)c1c(N)n(Cc2ccccc2)c(=O)[nH]c1=O | 3.16 µM [falling, full curve] | –
30 | O=C(OCCN1CCOCC1)C1(c2ccccc2)CCCCC1 | 35.5 µM [rising, single point] | –
31 | Cc1cc(/C=C(\C#N)C(=O)OCC#N)c(C)n1CC(C)C | 14.1 µM [falling, partial curve] | 15.8 µM [falling, partial curve, poor fit]
32 | CCOc1cc(CNCCO)cc(Br)c1OCc1ccc(Cl)cc1Cl | 22.4 µM [falling, single point] | 22.4 µM [falling, partial curve]
33 | O=C(Nc1cccc(-c2cn3c(n2)SCC3)c1)c1ccc(Br)o1 | – | 0.355 µM [rising, partial curve, poor fit]
34 | O=c1c(-c2nnc(SCc3ccc(Cl)c(Cl)c3)o2)cccn1Cc1ccccc1 | – | 14.1 µM [falling, single point]
35 | O=C(c1ccc2c(c1)OCCO2)N(Cc1cccnc1)c1nc2c(F)cc(F)cc2s1 | 0.501 µM [rising, full curve, poor fit] | 35.5 µM [rising, single point]

Three entries from above, sorted by heavy-atom count, low to high.
Row | Structure (SMILES) | AC50 [1] | AC50 [2]
8 | CCc1nc2ccc(C(=O)NCc3cccc(Br)c3)cc2nc1CC | 3.16 µM [falling, single point] | 1.26 µM [falling, partial curve, poor fit]
9 | COc1ccc(OCCC(=O)OCC(=O)NCCC2=CCCCC2)cc1 | 0.794 µM [rising, full curve, poor fit] | –
7 | O=C(NCc1cccnc1)/C(=C\c1ccc(-c2ccc(Br)cc2)o1)S(=O)(=O)c1ccccc1 | 35.5 µM [falling, single point] | –
